# According to the supplement of paper PMC10849652:
# Chains of the proteins cited; added tags and fusions are not shown. Lines headed by an entry give the natural chain unless they say otherwise; changes in a name come on top.
# UniProt Q9Y467: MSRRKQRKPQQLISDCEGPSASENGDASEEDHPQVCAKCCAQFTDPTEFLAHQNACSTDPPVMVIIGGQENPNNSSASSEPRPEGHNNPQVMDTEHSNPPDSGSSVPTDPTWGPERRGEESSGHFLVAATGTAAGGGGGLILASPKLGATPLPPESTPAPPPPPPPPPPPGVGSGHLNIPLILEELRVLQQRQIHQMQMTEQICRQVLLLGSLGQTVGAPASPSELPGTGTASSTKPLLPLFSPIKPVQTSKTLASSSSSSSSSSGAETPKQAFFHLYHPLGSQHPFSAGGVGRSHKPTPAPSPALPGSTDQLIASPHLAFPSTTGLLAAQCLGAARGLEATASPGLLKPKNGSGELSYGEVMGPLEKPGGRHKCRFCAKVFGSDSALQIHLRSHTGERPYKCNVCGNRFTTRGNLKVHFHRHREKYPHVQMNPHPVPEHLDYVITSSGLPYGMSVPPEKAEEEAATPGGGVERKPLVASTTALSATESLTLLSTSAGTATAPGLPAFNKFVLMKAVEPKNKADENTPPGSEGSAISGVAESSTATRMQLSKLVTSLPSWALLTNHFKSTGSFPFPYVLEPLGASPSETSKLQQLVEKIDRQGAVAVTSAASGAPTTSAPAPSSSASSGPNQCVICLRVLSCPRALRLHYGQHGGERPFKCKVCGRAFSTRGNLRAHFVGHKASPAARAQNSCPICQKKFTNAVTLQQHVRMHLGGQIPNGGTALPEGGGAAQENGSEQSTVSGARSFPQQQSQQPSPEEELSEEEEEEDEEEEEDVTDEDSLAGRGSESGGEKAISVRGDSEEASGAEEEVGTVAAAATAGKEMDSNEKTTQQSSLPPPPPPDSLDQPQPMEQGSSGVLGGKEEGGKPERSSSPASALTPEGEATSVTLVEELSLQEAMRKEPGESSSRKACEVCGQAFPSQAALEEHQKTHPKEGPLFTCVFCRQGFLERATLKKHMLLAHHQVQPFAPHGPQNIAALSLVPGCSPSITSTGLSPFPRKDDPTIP
# UniProt O75556: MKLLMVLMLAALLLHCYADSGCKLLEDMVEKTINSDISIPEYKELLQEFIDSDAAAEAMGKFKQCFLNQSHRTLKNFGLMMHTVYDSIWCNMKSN
# UniProt O94885: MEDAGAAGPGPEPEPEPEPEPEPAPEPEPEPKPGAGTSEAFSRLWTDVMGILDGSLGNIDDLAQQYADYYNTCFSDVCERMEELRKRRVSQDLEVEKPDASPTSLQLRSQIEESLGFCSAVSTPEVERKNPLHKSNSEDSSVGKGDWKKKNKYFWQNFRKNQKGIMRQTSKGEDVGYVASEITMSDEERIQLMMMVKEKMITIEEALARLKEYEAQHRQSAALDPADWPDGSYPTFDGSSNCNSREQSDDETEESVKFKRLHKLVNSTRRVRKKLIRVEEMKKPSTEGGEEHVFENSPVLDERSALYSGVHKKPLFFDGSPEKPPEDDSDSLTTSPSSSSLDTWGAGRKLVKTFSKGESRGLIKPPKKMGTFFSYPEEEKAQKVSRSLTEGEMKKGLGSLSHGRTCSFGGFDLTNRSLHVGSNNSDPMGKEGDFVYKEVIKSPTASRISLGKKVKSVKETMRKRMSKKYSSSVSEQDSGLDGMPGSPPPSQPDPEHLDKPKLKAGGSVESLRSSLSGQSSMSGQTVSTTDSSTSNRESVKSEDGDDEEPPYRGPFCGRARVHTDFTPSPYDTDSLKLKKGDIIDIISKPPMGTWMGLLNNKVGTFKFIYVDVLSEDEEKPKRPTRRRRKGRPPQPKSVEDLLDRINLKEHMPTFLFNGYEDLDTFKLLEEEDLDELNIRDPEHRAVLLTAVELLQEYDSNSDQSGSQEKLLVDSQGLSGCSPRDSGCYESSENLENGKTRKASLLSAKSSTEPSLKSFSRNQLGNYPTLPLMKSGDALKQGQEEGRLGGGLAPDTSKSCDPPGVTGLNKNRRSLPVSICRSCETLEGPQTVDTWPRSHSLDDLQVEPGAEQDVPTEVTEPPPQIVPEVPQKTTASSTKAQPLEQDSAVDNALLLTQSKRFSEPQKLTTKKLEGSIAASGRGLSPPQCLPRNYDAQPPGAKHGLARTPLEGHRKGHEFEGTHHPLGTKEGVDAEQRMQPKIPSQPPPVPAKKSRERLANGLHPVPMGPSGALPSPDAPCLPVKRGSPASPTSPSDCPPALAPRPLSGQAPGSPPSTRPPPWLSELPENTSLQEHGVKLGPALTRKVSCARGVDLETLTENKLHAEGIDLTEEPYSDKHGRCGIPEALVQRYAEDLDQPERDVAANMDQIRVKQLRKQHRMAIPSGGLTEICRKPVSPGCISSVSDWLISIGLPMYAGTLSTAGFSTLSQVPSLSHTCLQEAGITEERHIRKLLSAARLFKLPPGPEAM
# UniProt Q9NZV5, whole entry, looked up: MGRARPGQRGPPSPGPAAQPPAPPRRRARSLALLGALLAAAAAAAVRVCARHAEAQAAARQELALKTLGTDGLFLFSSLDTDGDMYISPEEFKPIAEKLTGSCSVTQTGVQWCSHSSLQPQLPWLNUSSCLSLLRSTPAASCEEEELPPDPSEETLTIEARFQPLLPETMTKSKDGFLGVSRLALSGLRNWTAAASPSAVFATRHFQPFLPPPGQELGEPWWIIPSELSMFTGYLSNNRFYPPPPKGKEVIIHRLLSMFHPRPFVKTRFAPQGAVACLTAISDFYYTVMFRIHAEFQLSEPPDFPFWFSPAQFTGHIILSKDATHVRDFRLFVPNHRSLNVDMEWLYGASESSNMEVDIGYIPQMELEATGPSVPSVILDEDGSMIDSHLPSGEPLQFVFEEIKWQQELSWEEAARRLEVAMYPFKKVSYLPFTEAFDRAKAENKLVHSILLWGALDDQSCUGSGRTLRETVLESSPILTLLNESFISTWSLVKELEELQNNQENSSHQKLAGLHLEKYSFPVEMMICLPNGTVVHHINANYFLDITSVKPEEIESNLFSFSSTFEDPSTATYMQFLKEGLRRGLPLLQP
# UniProt Q9NSC2: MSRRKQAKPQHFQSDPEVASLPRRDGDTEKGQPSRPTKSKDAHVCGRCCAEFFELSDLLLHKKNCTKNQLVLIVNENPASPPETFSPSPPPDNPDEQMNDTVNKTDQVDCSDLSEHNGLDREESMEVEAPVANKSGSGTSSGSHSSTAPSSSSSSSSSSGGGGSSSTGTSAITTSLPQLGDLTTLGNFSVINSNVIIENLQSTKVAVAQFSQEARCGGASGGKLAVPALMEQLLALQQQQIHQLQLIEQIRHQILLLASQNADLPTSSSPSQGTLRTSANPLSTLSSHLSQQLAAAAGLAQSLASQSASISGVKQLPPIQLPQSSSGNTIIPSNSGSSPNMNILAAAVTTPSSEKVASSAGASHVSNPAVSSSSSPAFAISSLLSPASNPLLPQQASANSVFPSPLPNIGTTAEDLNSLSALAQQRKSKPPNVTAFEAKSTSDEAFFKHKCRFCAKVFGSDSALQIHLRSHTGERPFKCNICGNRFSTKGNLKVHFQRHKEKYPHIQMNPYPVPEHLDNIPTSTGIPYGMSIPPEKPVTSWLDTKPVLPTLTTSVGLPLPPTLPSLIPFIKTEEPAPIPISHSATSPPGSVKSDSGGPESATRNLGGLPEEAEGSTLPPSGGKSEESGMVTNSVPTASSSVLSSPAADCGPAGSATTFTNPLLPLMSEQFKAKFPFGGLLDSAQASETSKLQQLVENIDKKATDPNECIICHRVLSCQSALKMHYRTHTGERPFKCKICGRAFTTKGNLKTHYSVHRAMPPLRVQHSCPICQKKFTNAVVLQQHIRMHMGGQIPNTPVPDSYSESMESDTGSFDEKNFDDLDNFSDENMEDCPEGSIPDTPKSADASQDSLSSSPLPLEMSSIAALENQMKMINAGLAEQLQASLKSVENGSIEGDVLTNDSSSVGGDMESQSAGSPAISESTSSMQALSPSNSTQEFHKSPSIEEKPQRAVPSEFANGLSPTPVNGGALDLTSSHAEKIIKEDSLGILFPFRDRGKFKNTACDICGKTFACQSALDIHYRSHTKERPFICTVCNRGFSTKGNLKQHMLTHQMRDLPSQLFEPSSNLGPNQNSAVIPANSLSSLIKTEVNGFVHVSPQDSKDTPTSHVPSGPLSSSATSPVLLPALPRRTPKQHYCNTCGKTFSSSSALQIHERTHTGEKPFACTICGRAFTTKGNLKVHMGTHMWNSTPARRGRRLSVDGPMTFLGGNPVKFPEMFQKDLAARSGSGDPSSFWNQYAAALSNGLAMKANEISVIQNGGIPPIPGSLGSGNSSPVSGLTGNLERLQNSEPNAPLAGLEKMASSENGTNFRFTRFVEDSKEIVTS
# UniProt P62341, whole entry, looked up: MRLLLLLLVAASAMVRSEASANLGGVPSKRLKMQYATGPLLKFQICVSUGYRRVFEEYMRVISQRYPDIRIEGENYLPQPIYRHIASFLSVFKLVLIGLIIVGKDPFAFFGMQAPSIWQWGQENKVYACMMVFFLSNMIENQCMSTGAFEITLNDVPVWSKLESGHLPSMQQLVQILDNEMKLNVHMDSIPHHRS
# UniProt Q9NRG7: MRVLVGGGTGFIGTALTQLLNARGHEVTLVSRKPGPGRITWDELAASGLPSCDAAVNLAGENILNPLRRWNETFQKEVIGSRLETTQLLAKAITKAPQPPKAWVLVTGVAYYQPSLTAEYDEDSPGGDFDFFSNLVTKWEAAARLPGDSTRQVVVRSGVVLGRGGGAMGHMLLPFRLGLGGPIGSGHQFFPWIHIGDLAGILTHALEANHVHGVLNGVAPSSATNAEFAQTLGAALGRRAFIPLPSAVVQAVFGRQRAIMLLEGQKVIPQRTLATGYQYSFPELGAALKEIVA
# UniProt O75056, whole entry, looked up: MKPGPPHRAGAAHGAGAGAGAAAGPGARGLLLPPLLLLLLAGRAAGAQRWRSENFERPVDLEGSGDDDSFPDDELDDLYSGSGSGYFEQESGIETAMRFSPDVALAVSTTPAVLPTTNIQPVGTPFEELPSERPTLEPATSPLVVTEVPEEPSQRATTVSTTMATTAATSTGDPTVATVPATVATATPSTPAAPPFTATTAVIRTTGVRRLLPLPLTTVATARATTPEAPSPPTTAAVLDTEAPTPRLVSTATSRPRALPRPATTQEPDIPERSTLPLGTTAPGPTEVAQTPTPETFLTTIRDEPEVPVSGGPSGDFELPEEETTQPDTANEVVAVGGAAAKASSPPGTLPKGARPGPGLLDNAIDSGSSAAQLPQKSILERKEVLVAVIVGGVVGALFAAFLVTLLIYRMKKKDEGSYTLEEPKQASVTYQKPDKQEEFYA
# UniProt Q9Y2G9: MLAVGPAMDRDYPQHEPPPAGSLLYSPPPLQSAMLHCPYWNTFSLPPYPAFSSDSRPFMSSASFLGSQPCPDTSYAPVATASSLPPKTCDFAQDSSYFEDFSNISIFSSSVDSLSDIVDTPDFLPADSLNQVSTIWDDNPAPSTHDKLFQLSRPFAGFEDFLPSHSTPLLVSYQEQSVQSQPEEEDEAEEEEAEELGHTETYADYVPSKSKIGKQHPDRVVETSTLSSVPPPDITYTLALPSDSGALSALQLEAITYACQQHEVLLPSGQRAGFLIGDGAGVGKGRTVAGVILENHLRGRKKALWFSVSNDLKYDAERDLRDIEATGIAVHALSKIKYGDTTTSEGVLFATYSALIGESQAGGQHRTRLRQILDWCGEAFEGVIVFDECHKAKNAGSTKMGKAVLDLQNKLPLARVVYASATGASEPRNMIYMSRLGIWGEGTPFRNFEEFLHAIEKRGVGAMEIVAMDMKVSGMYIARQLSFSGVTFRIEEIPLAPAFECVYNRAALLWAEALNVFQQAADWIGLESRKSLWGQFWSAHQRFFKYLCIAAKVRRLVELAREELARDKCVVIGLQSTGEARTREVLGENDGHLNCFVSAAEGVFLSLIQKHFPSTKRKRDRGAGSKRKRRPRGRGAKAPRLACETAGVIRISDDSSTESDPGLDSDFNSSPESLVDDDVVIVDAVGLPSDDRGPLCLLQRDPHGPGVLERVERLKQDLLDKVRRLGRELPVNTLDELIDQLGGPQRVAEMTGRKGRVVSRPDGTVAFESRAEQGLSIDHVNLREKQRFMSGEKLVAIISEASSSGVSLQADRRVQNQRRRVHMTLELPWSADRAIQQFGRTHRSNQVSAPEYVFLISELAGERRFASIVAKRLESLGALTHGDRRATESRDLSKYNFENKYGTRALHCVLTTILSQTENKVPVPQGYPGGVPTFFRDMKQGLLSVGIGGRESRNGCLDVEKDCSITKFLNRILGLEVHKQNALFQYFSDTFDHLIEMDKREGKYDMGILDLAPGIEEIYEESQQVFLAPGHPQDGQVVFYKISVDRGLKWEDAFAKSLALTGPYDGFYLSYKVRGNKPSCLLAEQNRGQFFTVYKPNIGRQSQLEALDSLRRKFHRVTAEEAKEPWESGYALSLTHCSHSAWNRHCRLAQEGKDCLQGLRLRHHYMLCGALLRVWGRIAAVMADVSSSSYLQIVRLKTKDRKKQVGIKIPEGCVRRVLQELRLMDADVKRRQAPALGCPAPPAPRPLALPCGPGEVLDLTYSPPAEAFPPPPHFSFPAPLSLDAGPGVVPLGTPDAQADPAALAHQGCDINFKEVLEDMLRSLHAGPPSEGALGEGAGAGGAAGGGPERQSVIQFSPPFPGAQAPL
# The other results are listed elsewhere or left out.
# What was measured:
# Test in all cases: log2 fold change, soluble protein after heating vs DMSO (PISA); higher = thermal stabilisation; K562 lysate, 10 uM; active = over 0.2 and 3.5 SD of the protein, either way, in both replicates (recomputed)
# [1] = compound: Cc1sc2c(c1C)C(c1ccc(Cl)cc1)=N[C@@H](CC(=O)OC(C)(C)C)c1nnc(C)n1-2
# Method in brief: (§1)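 Quantification was by TMTpro 16plex LC-MS/MS with equalised channel sums, applied to the supernatant after 21,000xg for 90 min. Samples were crude K562 extract at 1 mg/mL protein in PBS pH 7.4 with 1 mM MgCl2, treated with 10 μM compound for 30 min, heated for 3 min across 48°C-58°C, pooled and brought to 0.5% NP-40 at 4°C. Values are log-two fold changes in thermal stability relative to solvent controls, from duplicates.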
# [2] = compound: c1ccc([C@@H]2C[C@H]2NC2CCNCC2)cc1
# Method in brief: as §1
# [3] = compound: C1=CC=C(C=C1)[C@H](COC2=CC3=C(C=C2)NC(=O)N3)NC(=O)C4=CC=CN(C4=O)CC5=CC(=C(C=C5)F)F
# Method in brief: as §1
# [4] = compound: CC1=C(SC2=C1C(=N[C@H](C3=NN=C(N32)C)CC(=O)N)C4=CC=C(C=C4)Cl)C
# Method in brief: as §1
# [5] = compound: CC1=C2C(=CC=C1)N=C(N(C2=O)C3=CC=CC=C3C)CN4C=NC5=C(N=CN=C54)N
# Method in brief: as §1
target,measurement,setting,value
SELENOO (UniProt Q9BVL4),log2 fold change,[1],inactive: -0.077
same,log2 fold change,[2],inactive: -0.067
SALL2 (UniProt Q9Y467),log2 fold change,[3],inactive: -0.042
same,log2 fold change,[4],inactive: 0.036
same,log2 fold change,[1],inactive: 0.098
same,log2 fold change,[2],inactive: -0.168
SENP7 (UniProt Q9BQF6),log2 fold change,[1],inactive: 0.232
same,log2 fold change,[2],inactive: -0.036
SAGE1 (UniProt Q9NXZ1),log2 fold change,[1],inactive: 0.03
same,log2 fold change,[2],inactive: -0.002
SCGB1D2 (UniProt O95969),log2 fold change,[3],inactive: -0.369
same,log2 fold change,[4],inactive: -0.163
same,log2 fold change,[1],inactive: -0.015
same,log2 fold change,[2],inactive: 0.104
SCOC (UniProt Q9UIL1),log2 fold change,[1],inactive: 0.015
SBSN (UniProt Q6UWP8),log2 fold change,[2],inactive: -0.001
SELENOI (UniProt Q9C0D9),log2 fold change,[3],inactive: -0.044
same,log2 fold change,[4],inactive: -0.188
same,log2 fold change,[1],inactive: -0.191
SCNM1 (UniProt Q9BWG6),log2 fold change,[1],inactive: -0.332
same,log2 fold change,[2],inactive: 0.014
SDCBP isoform 2 (UniProt O00560),log2 fold change,[3],inactive: -0.056
same,log2 fold change,[4],inactive: 0.027
same,log2 fold change,[1],inactive: 0.058
same,log2 fold change,[2],inactive: -0.063
SAP130 isoform 3 (UniProt Q9H0E3),log2 fold change,[5],inactive: -0.054
same,log2 fold change,[1],inactive: -0.125
same,log2 fold change,[2],inactive: 0.074
SEMA4G isoform 2 (UniProt Q9NTN9),log2 fold change,[5],inactive: 0.105
same,log2 fold change,[1],inactive: 0.021
same,log2 fold change,[2],inactive: 0.066
SEC16A isoform 3 (UniProt O15027),log2 fold change,[1],inactive: -0.006
SC5D (UniProt O75845),log2 fold change,[2],inactive: -0.043
SAMD9 (UniProt Q5K651),log2 fold change,[2],inactive: 0.077
SAE1 (UniProt M0R286),log2 fold change,[5],inactive: 0.085
same,log2 fold change,[1],inactive: -0.062
SENP3 (UniProt Q9H4L4),log2 fold change,[5],inactive: -0.101
same,log2 fold change,[1],inactive: 0.134
same,log2 fold change,[2],inactive: 0.09
SEPTIN8 (UniProt F8W8I8),log2 fold change,[1],inactive: -0.019
same,log2 fold change,[2],inactive: -0.26
SCARB2 isoform 2 (UniProt Q14108),log2 fold change,[3],inactive: 0.007
same,log2 fold change,[4],inactive: 0.058
same,log2 fold change,[1],inactive: -0.044
same,log2 fold change,[2],inactive: -0.016
SDHD (UniProt O14521),log2 fold change,[5],inactive: 0.17
same,log2 fold change,[1],inactive: -0.017
same,log2 fold change,[2],inactive: 0.1
"SDHB, A0A087WXX8",log2 fold change,[5],inactive: 0.169
same,log2 fold change,[2],inactive: -0.096
SCGB2A1 (UniProt O75556),log2 fold change,[2],inactive: -0.043
SAC3D1 (UniProt A6NKF1),log2 fold change,[3],inactive: 0.001
same,log2 fold change,[4],inactive: 0.056
same,log2 fold change,[2],inactive: 0.214
"SDHB, A0A087WWT1",log2 fold change,[5],inactive: 0.065
same,log2 fold change,[1],inactive: -0.122
same,log2 fold change,[2],inactive: 0.099
SASH1 (UniProt O94885),log2 fold change,[3],inactive: -0.006
same,log2 fold change,[4],inactive: 0.095
same,log2 fold change,[1],inactive: -0.024
same,log2 fold change,[2],inactive: 0.012
SELENON (UniProt Q9NZV5),log2 fold change,[1],inactive: 0.274
SCG3 (UniProt Q8WXD2),log2 fold change,[5],inactive: -0.023
same,log2 fold change,[1],inactive: 0.002
same,log2 fold change,[2],inactive: -0.023
SALL1 (UniProt Q9NSC2),log2 fold change,[2],inactive: 0.299
SELENOT (UniProt P62341),log2 fold change,[3],inactive: -0.254
same,log2 fold change,[4],inactive: 0.134
same,log2 fold change,[1],inactive: -0.232
same,log2 fold change,[2],inactive: 0.181
SDR39U1 (UniProt Q9NRG7),log2 fold change,[3],inactive: 0.599
same,log2 fold change,[4],inactive: -0.238
same,log2 fold change,[2],inactive: -0.141
SATB2 (UniProt Q9UPW6),log2 fold change,[5],inactive: -0.019
same,log2 fold change,[1],inactive: 0.021
same,log2 fold change,[2],inactive: -0.045
SEC14L1 isoform 2 (UniProt Q92503),log2 fold change,[5],inactive: 0.069
SEC31A (UniProt H0YAB3),log2 fold change,[3],inactive: -0.046
same,log2 fold change,[4],inactive: -0.015
same,log2 fold change,[1],inactive: 0.01
same,log2 fold change,[2],inactive: -0.004
SELENOW (UniProt P63302),log2 fold change,[2],inactive: 0.075
SARM1 (UniProt Q6SZW1),log2 fold change,[2],inactive: 0.272
SDC3 (UniProt O75056),log2 fold change,[1],inactive: -0.205
SBNO2 (UniProt Q9Y2G9),log2 fold change,[5],inactive: 0.082
same,log2 fold change,[2],inactive: 0.113

# Reprinted at random: 2 records from the list
target,measurement,setting,value
SBSN (UniProt Q6UWP8),log2 fold change,[2],inactive: -0.001
SATB2 (UniProt Q9UPW6),log2 fold change,[5],inactive: -0.019

# 2 neighbouring entries out of the list so far, quoted:
target,measurement,setting,value
"SDHB, A0A087WWT1",log2 fold change,[2],inactive: 0.099
SASH1 (UniProt O94885),log2 fold change,[3],inactive: -0.006
